Data as given in PubChem BioAssay AID1259308 (NCATS, 2017)
Screen: 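Knock-downs that increase output of a recombinant reporter protein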 (primary screen). Cell system: human HEK293 embryonic kidney cells stably expressing firefly luciferase (HEK-CMV-Luc2-Hygro). Reagents: single siRNA against human genes, 0.8 pmol siRNA per well. Duration: 72 h. Measured: 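Luciferase light (ONE-Glo) measured on one replicate plate set and viability (CellTiter-Glo) on the other, scaled to a negative control siRNA, with robust z-scores and luciferase per cell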. Reading the numbers: total luciferase, z-score and total luciferase, % of control: higher = more reporter protein produced; luciferase per cell, z-score: higher = more reporter output per viable cell; viable cells, % of control: higher = more viable cells. Call rule: 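An siRNA counts as active if its total luciferase robust z-score exceeds 3; genes with two or more such siRNAs out of three were retested with fresh siRNAs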. Calls: active = raised luciferase; inactive = no rise.
In all, the deposit lists about 59,000 reagents; shown is an unselected part. About 1,510 of them (2.6%) count as active. 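Calls use total luciferase alone and ignore viability, so some active siRNAs may act by altering cell number.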 A number with no mark means an inactive call. The numbers tell different reagents against one gene apart.

| gene knocked down | siRNA no. | total luciferase, z-score | total luciferase, % of control | luciferase per cell, z-score | viable cells, % of control |
| --- | --- | --- | --- | --- | --- |
| FCRL1 | 1 | -0.843 | 65.1 | -1.3 | 102 |
| FCRL1 | 2 | -0.657 | 68.8 | -0.418 | 85.8 |
| FCRL1 | 3 | 0.643 | 94.7 | 0.725 | 87.4 |
| CYB561D1 | 1 | 0.928 | 100 | 0.731 | 92.5 |
| CYB561D1 | 2 | 0.139 | 84.7 | 0.106 | 92 |
| CYB561D1 | 3 | -0.466 | 72.6 | -0.565 | 94.2 |
| MBD5 | 1 | 2.3 | 128 | 2.02 | 83.9 |
| MBD5 | 2 | 0.172 | 85.3 | 0.642 | 80.5 |
| MBD5 | 3 | 0.216 | 86.2 | -0.127 | 99.6 |
| GFER | 1 | 0.0846 | 83.6 | -0.108 | 96.1 |
| GFER | 2 | -2.26 | 37 | -1.58 | 62.6 |
| GFER | 3 | 1.65 | 115 | 1.15 | 94.8 |
| INA | 1 | -0.74 | 67.2 | 0.495 | 65.9 |
| INA | 2 | 1.63 | 114 | 0.853 | 102 |
| INA | 3 | -2.56 | 30.9 | -4.18 | 104 |
| MAP10 | 1 | -1.53 | 51.4 | -1.35 | 82.1 |
| MAP10 | 2 | -0.573 | 70.5 | -0.0697 | 80.2 |
| MAP10 | 3 | 1.13 | 104 | 0.755 | 95.6 |
| FZD9 | 1 | 1.15 | 105 | 0.792 | 95.1 |
| FZD9 | 2 | 0.194 | 85.7 | 0.443 | 85.3 |
| FZD9 | 3 | 0.037 | 82.6 | -0.478 | 105 |
| MAP7D2 | 1 | 0.464 | 91.1 | 0.362 | 92.6 |
| MAP7D2 | 2 | 0.819 | 98.2 | 0.441 | 97.7 |
| MAP7D2 | 3 | 1.87 | 119 | 1.52 | 89.1 |
| CLDN22 | 1 | 0.562 | 93.1 | 0.0236 | 103 |
| CLDN22 | 2 | 1.47 | 111 | 1.68 | 79.8 |
| CLDN22 | 3 | 1.84 | 118 | 2.55 | 67.7 |
| SPSB3 | 1 | -1.63 | 49.5 | -1.1 | 73.9 |
| SPSB3 | 2 | -1.94 | 43.3 | -1.74 | 76.6 |
| SPSB3 | 3 | 1.11 | 104 | 0.595 | 99.4 |
| C2orf72 | 1 | 1.27 | 107 | 1.22 | 87 |
| C2orf72 | 2 | -0.744 | 67.1 | -0.334 | 81.9 |
| C2orf72 | 3 | 0.117 | 84.2 | -0.306 | 102 |
| FASTKD4 | 1 | -0.251 | 76.9 | -0.597 | 101 |
| FASTKD4 | 2 | -0.78 | 66.4 | -0.721 | 89.7 |
| FASTKD4 | 3 | -0.629 | 69.4 | -0.524 | 89 |
| ME3 | 1 | 1.55 | 113 | 3.76 | 46.7 |
| ME3 | 2 | -0.883 | 64.3 | -1.15 | 97.3 |
| ME3 | 3 | 0.191 | 85.7 | 0.57 | 82.4 |
| TEX13B | 1 | 1.87 | 119 | 2.13 | 76 |
| TEX13B | 2 | 1.93 | 120 | 2.56 | 68.5 |
| TEX13B | 3 | 1.84 | 119 | 1.5 | 89.3 |
| PRPF40B | 1 | -1.08 | 60.4 | -1.38 | 97.1 |
| PRPF40B | 2 | -0.477 | 72.4 | -0.15 | 84.2 |
| PRPF40B | 3 | 1.77 | 117 | 0.504 | 114 |
| OR5D18 | 1 | -1.29 | 56.3 | -1.93 | 105 |
| OR5D18 | 2 | 0.27 | 87.3 | 0.0108 | 97.2 |
| OR5D18 | 3 | -0.433 | 73.3 | -0.374 | 90.4 |
| FGF10 | 1 | 1.13 | 104 | 0.791 | 94.7 |
| FGF10 | 2 | -0.952 | 62.9 | -1.68 | 110 |
| FGF10 | 3 | -0.978 | 62.4 | -1.11 | 93.4 |
| C19orf47 | 1 | -2.46 | 33 | -1.81 | 59.3 |
| C19orf47 | 2 | -0.347 | 75 | -0.0898 | 85.8 |
| C19orf47 | 3 | -0.833 | 65.3 | -1.27 | 102 |
| CFAP206 | 1 | 0.568 | 93.2 | 0.0144 | 104 |
| CFAP206 | 2 | -0.371 | 74.5 | -0.542 | 96 |
| CFAP206 | 3 | 0.869 | 99.2 | 0.47 | 97.9 |

Sorted by “luciferase per cell, z-score” (highest first): 7 of the entries above.
| gene knocked down | siRNA no. | total luciferase, z-score | total luciferase, % of control | luciferase per cell, z-score | viable cells, % of control |
| --- | --- | --- | --- | --- | --- |
| C2orf72 | 1 | 1.27 | 107 | 1.22 | 87 |
| SPSB3 | 3 | 1.11 | 104 | 0.595 | 99.4 |
| C2orf72 | 3 | 0.117 | 84.2 | -0.306 | 102 |
| C2orf72 | 2 | -0.744 | 67.1 | -0.334 | 81.9 |
| FASTKD4 | 1 | -0.251 | 76.9 | -0.597 | 101 |
| SPSB3 | 1 | -1.63 | 49.5 | -1.1 | 73.9 |
| SPSB3 | 2 | -1.94 | 43.3 | -1.74 | 76.6 |
